Measurements taken from PubChem BioAssay AID624297 (National Center for Advancing Translational Sciences (NCATS), 2012).
Among all 340,000 compounds or so, about 6,200 (1.8%) were called active. The inconclusive results got no clear call from the source; some entries with a clear call stand among them for comparison. Calls follow the shape of the dose curve; as a rule, active = well fitted activation curve with a large enough effect; inconclusive = small, poorly fitted or top-dose-only effect; inactive = no such curve, though single readings can be large or run the other way. Where the call is inconclusive, the potency comes from a doubtful curve fit.

experiment: A quantitative high throughput screen for small molecules that induce DNA re-replication in SW480 colon adenocarcinoma cells.; also: nearly all actives have a fitted effect of over 55% in size; details: Hoechst DNA content imaging, 48 h; series mostly up to 46.1 µM
Outline: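 Hoechst fluorescence of nuclei (405 nm excitation, 500-530 nm emission) measured by plate-scanning imager after 48 hr compound exposure at 37 C; re-replication scored as increased number of nuclei with elevated intensity.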
Potency is read from the fitted curve at half-maximal effect.

Row | SMILES | Potency
1 | CSc1nc(S(C)(=O)=O)nc2[nH]c(=O)[nH]c12 | inactive
2 | O=C(Nc1ccc(S(=O)(=O)N2CCCCC2)cc1)c1ccncc1 | inconclusive: 0.447 µM [activator, full curve, poor fit]
3 | CCOC(=O)C(Cc1ccccc1)NC(=O)CCc1nnc2ccc(N3CCCCC3)nn12 (stereo not given) | inconclusive: 9.2 µM [activator, full curve, poor fit]
4 | CC(C)(C)c1cc(/C=N/O)cc(C(C)(C)C)c1O | inconclusive: 29.1 µM [activator, partial curve, poor fit]
5 | Cc1cc(Br)ccc1OCC(=O)NNC(=O)C(=O)Nc1ccccc1 | inactive
6 | COc1ccc(CCNC(=O)c2cccc(Br)c2)cc1OC | inconclusive: 0.58 µM [activator, full curve, poor fit]
7 | C/C(N=Nc1nc2ccccc2s1)=N\Nc1ccccc1O | inconclusive: 14.6 µM [activator, single point]
8 | CCOC(=O)C(CCCP(=O)(c1ccccc1)c1ccccc1)(NC(C)=O)C(=O)OCC | inactive
9 | C=CCC1CCCC(=O)N2CCCC12 (stereo not given) | inactive
10 | O=C(NCCN1CCOCC1)c1ccc(NC(=O)C2COc3ccccc3O2)cc1 (stereo not given) | inactive
11 | Nc1[nH]c(=O)[nH]c(=O)c1N=Cc1ccccc1 | inactive
12 | CCN(CC)c1ccc(/C=N/NC(=O)Cc2cccs2)c(O)c1 | inconclusive: 3.26 µM [activator, full curve, poor fit]
13 | C=CCN(c1ccccc1)S(=O)(=O)c1cccc(C(=O)NC2CCN(Cc3ccccc3)CC2)c1 | inconclusive: 18.4 µM [activator, single point]
14 | CC(C)c1nnc(NC(=O)CN2C(=O)c3ccccc3C2=O)s1 | inconclusive: 18.4 µM [activator, partial curve, poor fit]
15 | COc1ccc(/C=N/NC(=O)c2sc3nc(C)cc(C)c3c2N)cc1 | inconclusive: 2.31 µM [activator, full curve, poor fit]
16 | CC(C)Oc1ccccc1/C=N/NC(=O)C1CC1 | inconclusive: 25.9 µM [activator, single point]
17 | CC1=NN(c2ccc(C)cc2)C(=O)/C1=C\C=C\c1ccccc1 | inactive
18 | Cc1ccccc1C1C(C#N)=C2N=C(N)c3c(sc4c3CCCCC4)N2C2=C1C(=O)CC(C)(C)C2 (stereo not given) | inconclusive: 18.4 µM [activator, partial curve, poor fit]
19 | COc1ccc(Cl)cc1N(CC(=O)Nc1ccccc1C(=O)N1CCCC1)S(C)(=O)=O | inactive
20 | CCCCNS(=O)(=O)c1ccc2nc(SCC(=O)Nc3sccc3C#N)[nH]c2c1 | inactive
21 | O=C(NCCC1CCCCN1S(=O)(=O)c1ccccc1)C(=O)NCc1ccccc1 (stereo not given) | inconclusive: 16.4 µM [activator, single point]
22 | O=C(NCCc1cccnc1)c1cc(COc2ccc(F)cc2Cl)on1 | inactive
23 | Cc1nc(N2CCN(c3ccccn3)CC2)c2c(C)c(C(=O)Nc3c(F)cc(F)cc3Br)sc2n1 | inconclusive: 16.4 µM [activator, single point]
24 | Cc1cccc(/C(N)=N/OC(=O)COc2ccc(Cl)cc2)c1 | inconclusive: 0.411 µM [activator, full curve, poor fit]

Row | SMILES | Potency
25 | Cc1cc(-c2csc(NC(=O)c3cc4ccccc4o3)n2)c(C)n1C | inactive
26 | COc1cc(C2NC(=O)c3ccccc3O2)ccc1OC(C)C (stereo not given) | inconclusive: 4.11 µM [activator, full curve, poor fit]
27 | CCCCCCCCn1c(N2CCN(c3cccc(Cl)c3)CC2)nc2c1c(=O)[nH]c(=O)n2C | inactive
28 | COC(=O)Cc1ccc(NC(=S)NCc2ccc(OC)cc2)cc1 | inactive
29 | COc1ccc(C(=O)CCN2CCN(c3ccccc3F)CC2)cc1 | inconclusive: 11.6 µM [activator, partial curve]
30 | CCOC(=O)C1(CCOc2ccccc2)CCN(Cc2cccc(OC)c2O)CC1 | inconclusive: 20.6 µM [activator, single point]
31 | CC1CC(Nc2ccccc2N)=CC(=O)O1 (stereo not given) | inactive
32 | O=C(Nc1ccccc1C(=O)O)c1cc(S(=O)(=O)N2CCOCC2)c(Br)s1 | inconclusive: 13 µM [activator, partial curve, poor fit]
33 | CCOC(=O)n1c(=O)n(Cc2ccccc2)c2ccccc21 | inactive
34 | CCOC(=O)c1c(NC(=O)CSc2nnnn2-c2ccccc2OCC)sc2c1CC(C)(C)NC2(C)C | inconclusive: 29.1 µM [activator, single point]
35 | OCC1(Cc2ccccc2)CCN(C2CCN(c3ccc(F)c(F)c3)CC2)CC1 | inactive
36 | CC(C)(CNC(=O)c1sc2cc(F)ccc2c1Cl)N1CCOCC1 | inactive
37 | CNC(=O)c1cccc(NC(=O)c2cc(-c3ccccc3)nc3c2cnn3C(C)C)c1 | inactive
38 | CCCc1cc(=O)[nH]c(SCC(=O)NC2CCCCCCC2)n1 | inactive
39 | CC(NC(=S)NC1CCC(C(C)(C)C)CC1)c1ccccc1 (stereo not given) | inconclusive: 29.1 µM [activator, single point]
40 | O=C(Nn1cc(C(=O)Nc2ccccc2F)c2ccccc2c1=O)c1cnccn1 | inconclusive: 23.1 µM [activator, partial curve, poor fit]
41 | CCOC(=O)c1c(N2C(=O)Nc3cc(Cl)c(Cl)cc3N2O)sc2c1CCCCC2 | inactive
42 | Nc1nonc1-n1nnc(C(=O)N/N=C/c2ccncc2)c1-c1cccs1 | inconclusive: 3.66 µM [activator, single point]
43 | Cc1ccc(S(=O)(=O)c2cc3c(=O)n4ccccc4nc3n(Cc3ccco3)c2=N)cc1C | inconclusive: 20.6 µM [activator, partial curve, poor fit]
44 | N#Cc1ccccc1Oc1ccccc1C=O | inactive
45 | Nc1nc(Cl)cc(N2CCC(c3cc(-c4ccc(Cl)cc4Cl)n[nH]3)CC2)n1 | inconclusive: 18.4 µM [activator, single point]
46 | O=C(N[C@H]1C/C=C\C[C@@H](CC(=O)N(CCO)Cc2ccccc2)C(=O)N2CCC[C@@H]2COC1=O)OCC1c2ccccc2-c2ccccc21 | inconclusive: 0.116 µM [activator, full curve, poor fit]
47 | Cc1ccc(C(=O)O)cc1NC(=S)NC(=O)c1ccc(COc2ccccc2)cc1 | inactive
48 | O=C(O)C1=C(CSc2nnnn2CS(=O)(=O)O)CS[C@@H]2[C@H](NC(=O)[C@H](O)c3ccccc3)C(=O)N12 | inactive

Row | SMILES | Potency
49 | Cc1cc(C(=O)N/N=C/c2ccc(-c3ccc([N+](=O)[O-])cc3C)o2)n[nH]1 | inconclusive: 23.1 µM [activator, single point]
50 | COc1ccc(CSc2nc3nc(C)cc(C)n3n2)cc1F | inconclusive: 13 µM [activator, single point]
51 | CCCN(CCC)C(C(=O)Nc1cccc(OC)c1)c1ccccc1 (stereo not given) | inconclusive: 23.1 µM [activator, partial curve, poor fit]
52 | O=C1Cc2ccccc2C(=O)N1Cc1cccc(Cl)c1 | inactive
53 | CCN(C(=O)c1c(OC)cccc1OC)c1nnc(-c2cccnc2)s1 | inconclusive: 2.06 µM [activator, full curve, poor fit]
54 | CC(C)CCN(CCC(C)C)CC(O)Cn1c2ccccc2c(=O)c2ccccc21 (stereo not given) | inconclusive: 1.16 µM [activator, partial curve, poor fit]
55 | O=C(Nc1ccc(SC(F)F)cc1)c1ccc2c(=O)n3c(nc2c1)CCC3 | inconclusive: 2.31 µM [activator, partial curve, poor fit]
56 | O=C(c1cc(Cl)cc(Cl)c1)N1CCC(=O)N(C(COCc2ccccc2)Cc2ccccc2)CC1 (stereo not given) | inconclusive: 4.61 µM [activator, full curve]
57 | CCOC(=O)C1=C(C)NC(=S)NC1/C=C/c1ccccc1 (stereo not given) | inactive
58 | CC(C)(C)c1cc[n+](C2=C([O-])c3ccccc3C(=O)/C2=N\S(=O)(=O)c2ccccc2)cc1 | inconclusive: 20.6 µM [activator, single point]
59 | NC(=O)c1ccc(NC(=O)COC(=O)c2cc3c(s2)CCC3)cc1 | inconclusive: 29.1 µM [activator, single point]
60 | Cc1ccc(SCCC(=O)OC(C(=O)NC(N)=O)C(C)C)cc1 (stereo not given) | inconclusive: 29.1 µM [activator, partial curve, poor fit]
61 | COCc1nnc(NC(=O)c2ccc(S(=O)(=O)N(C)c3ccccc3)cc2)o1 | inconclusive: 23.1 µM [activator, single point]
62 | CC1(CCC(=O)N2CCCC(N3CCN(c4cccc(C(F)(F)F)c4)CC3)C2)CC1 (stereo not given) | inconclusive: 7.31 µM [activator, full curve, poor fit]
63 | CCC1Nc2ncnc(N3CCOCC3)c2N(Cc2ccccc2)C1=O (stereo not given) | inconclusive: 0.58 µM [activator, full curve, poor fit]
64 | Cc1cc(NN)nc(Cc2ccccc2)n1 | inactive
65 | Cc1ccc(CN2CC(C(=O)Nc3cccc(S(=O)(=O)N4CCCCC4)c3)CC2=O)cc1 (stereo not given) | inconclusive: 20.6 µM [activator, single point]
66 | O=C(Cn1ncc(Cl)c(Cl)c1=O)NCC1CCCCC1 | inconclusive: 3.26 µM [activator, full curve]
67 | Cc1occc1C(=O)Nc1cccc(C(F)(F)F)c1 | inactive
68 | Cc1cc(Cl)cc(Cl)c1OCCOCCN(C)C | inconclusive: 16.4 µM [activator, partial curve, poor fit]
69 | CC(=O)C1=C(O)C(=O)N(Cc2cccnc2)C1c1ccc(C(C)C)cc1 (stereo not given) | inactive
70 | C=CCn1c(SCc2c(Cl)cccc2Cl)nnc1-c1cccnc1 | inconclusive: 0.0206 µM [activator, full curve, poor fit]

Retrieved by structure from above (4):
Row | SMILES | Potency
70 | C=CCn1c(SCc2c(Cl)cccc2Cl)nnc1-c1cccnc1 | inconclusive: 0.0206 µM [activator, full curve, poor fit]
16 | CC(C)Oc1ccccc1/C=N/NC(=O)C1CC1 | inconclusive: 25.9 µM [activator, single point]
59 | NC(=O)c1ccc(NC(=O)COC(=O)c2cc3c(s2)CCC3)cc1 | inconclusive: 29.1 µM [activator, single point]
33 | CCOC(=O)n1c(=O)n(Cc2ccccc2)c2ccccc21 | inactive
